# In publication doi:10.1101/2024.05.31.596839:
# Biological target: Tejas (Drosophila)
# Test: ReLo
row,Binder,binding
1,"KrimpΔ84-284 (protein, UniProt A1ZAC4) MNLEDISMIMKLFDSNMHKLQGNLRSYQTEMHQIHKELTEKLSHADLLYRSLIPLHDHLVASLSEVNAHVMKLNVQLHINRQSRNRFLLPPKGGTETTRRDIYNQILKDMAAFPENTIVTAVLASVDVTDNCAYVAKWDESSDRIKKVLQRQLPLQELDQLPDYGDIFAVLDSINNIITRITINSSSAGGGYDAYLIDFGEHIHFDGNETIFKLPDDIKRLPAQAIRCDLINCDIANMHCFVNTYIKIRVHENNNSTLVAEPVIDRLSRPTKTNTTKYPAGITEDDMAMLNEIDESTSDPLKAVLGFRPKDEQRICRHYDPKLNGCFKGNNCRFAHEPFAPNGATKDVELARALPETIFDTTVHFEIGSIVGILITFINGPTEVYGQFLDGSPPLVWDKKDVPENKRTFKSKPRLLDIVLALYSDGCFYRAQIIDEFPSEYMIFYVDYGNTEFVPLSCLAPCENVDSFKPHRVFSFHIEGIVRSKNLTHQKTIECIEYLKSKLLNTEMNVHLVQRLPDGFLIRFLDDWKYIPEQLLQRNYAQVSQ",binds
2,"KrimpΔ285-461 (protein, UniProt A1ZAC4) MNLEDISMIMKLFDSNMHKLQGNLRSYQTEMHQIHKELTEKLSHADLLYRSLIPLHDHLVASLSEVNAHVMKLNVQLHINRQSVRLGDYEYYEKSIDNPYSSIRSGLQAIEKPGCAEAICQSSKPAFVECLPSSTSEEVPVVAVQEASSTNQLDAISVVNENLSEERDATPQPLAVSKNMEETMPSNPFHEQLEGSLEEIPVGSKIVVETEKANNPVRSEASAPATSDNQSLLAAKQGTQTIGTGICNKISKSTINMPNNWQLENPTEVTAASIEKVNKLPKSPEPVIDRLSRPTKTNTTKYPAGITEDDMAMLNEIDESTSDPLKAVLGFRPKDEQRICRHYDPKLNGCFKGNNCRFAHEPFAPNGATKDVELARALPETIFDTTVHFEIGSIVGILITFINGPTEVYGQFLDGSPPLVWDKKDVPENKRTFKSKPRLLDIVLALYSDGCFYRAQIIDEFPSEYMIFYVDYGNTEFVPLSCLAPCENVDSFKPHRVFSFHIEGIVRSKNLTHQKTIECIEYLKSKLLNTEMNVHLVQRLPDGFLIRFLDDWKYIPEQLLQRNYAQVSQ",binds
3,"KrimperΔ483-494 (protein, UniProt A1ZAC4) MNLEDISMIMKLFDSNMHKLQGNLRSYQTEMHQIHKELTEKLSHADLLYRSLIPLHDHLVASLSEVNAHVMKLNVQLHINRQSVRLGDYEYYEKSIDNPYSSIRSGLQAIEKPGCAEAICQSSKPAFVECLPSSTSEEVPVVAVQEASSTNQLDAISVVNENLSEERDATPQPLAVSKNMEETMPSNPFHEQLEGSLEEIPVGSKIVVETEKANNPVRSEASAPATSDNQSLLAAKQGTQTIGTGICNKISKSTINMPNNWQLENPTEVTAASIEKVNKLPKSPRNRFLLPPKGGTETTRRDIYNQILKDMAAFPENTIVTAVLASVDVTDNCAYVAKWDESSDRIKKVLQRQLPLQELDQLPDYGDIFAVLDSINNIITRITINSSSAGGGYDAYLIDFGEHIHFDGNETIFKLPDDIKRLPAQAIRCDLINCDIANMHCFVNTYIKIRVHENNNSTLVAEPVIDRLSRPTKTNTTKYPAGDESTSDPLKAVLGFRPKDEQRICRHYDPKLNGCFKGNNCRFAHEPFAPNGATKDVELARALPETIFDTTVHFEIGSIVGILITFINGPTEVYGQFLDGSPPLVWDKKDVPENKRTFKSKPRLLDIVLALYSDGCFYRAQIIDEFPSEYMIFYVDYGNTEFVPLSCLAPCENVDSFKPHRVFSFHIEGIVRSKNLTHQKTIECIEYLKSKLLNTEMNVHLVQRLPDGFLIRFLDDWKYIPEQLLQRNYAQVSQ",binds

# Results are given in words; binding and its absence hold for the method and conditions named. A result given as binding can be weak or reduced; the word gives no strength.
